Source: US20240042019A1, “OPTIMIZED TLR7 LIGANDS AND USES THEREOF” (Genentech, Inc., priority 2021, published 2024)
Where two headings read alike, the source gives them in different places. Some of these results come from one statement about several compounds together. Oligonucleotides are written 5' to 3', each unit as a sugar letter and its base; * is a phosphorothioate linkage, no mark a phosphodiester; rarer units and linkages stand in square brackets, end groups in braces. Plain capitals give the bases only. m = 2'-O-methyl; r = 2'-OH (RNA); f = 2'-fluoro

Molecular target: T1, TLR7 (Homo sapiens, UniProt Q9NYK1)
T1 construct: Peripheral blood mononuclear cells (PBMCs) were obtained from buffy coats from healthy adult donors; endogenous in cells; host or cells: primary human PBMCs from healthy donor buffy coats (TLR7 expressed by pDCs)
T1 sequence (Q9NYK1 27-1049): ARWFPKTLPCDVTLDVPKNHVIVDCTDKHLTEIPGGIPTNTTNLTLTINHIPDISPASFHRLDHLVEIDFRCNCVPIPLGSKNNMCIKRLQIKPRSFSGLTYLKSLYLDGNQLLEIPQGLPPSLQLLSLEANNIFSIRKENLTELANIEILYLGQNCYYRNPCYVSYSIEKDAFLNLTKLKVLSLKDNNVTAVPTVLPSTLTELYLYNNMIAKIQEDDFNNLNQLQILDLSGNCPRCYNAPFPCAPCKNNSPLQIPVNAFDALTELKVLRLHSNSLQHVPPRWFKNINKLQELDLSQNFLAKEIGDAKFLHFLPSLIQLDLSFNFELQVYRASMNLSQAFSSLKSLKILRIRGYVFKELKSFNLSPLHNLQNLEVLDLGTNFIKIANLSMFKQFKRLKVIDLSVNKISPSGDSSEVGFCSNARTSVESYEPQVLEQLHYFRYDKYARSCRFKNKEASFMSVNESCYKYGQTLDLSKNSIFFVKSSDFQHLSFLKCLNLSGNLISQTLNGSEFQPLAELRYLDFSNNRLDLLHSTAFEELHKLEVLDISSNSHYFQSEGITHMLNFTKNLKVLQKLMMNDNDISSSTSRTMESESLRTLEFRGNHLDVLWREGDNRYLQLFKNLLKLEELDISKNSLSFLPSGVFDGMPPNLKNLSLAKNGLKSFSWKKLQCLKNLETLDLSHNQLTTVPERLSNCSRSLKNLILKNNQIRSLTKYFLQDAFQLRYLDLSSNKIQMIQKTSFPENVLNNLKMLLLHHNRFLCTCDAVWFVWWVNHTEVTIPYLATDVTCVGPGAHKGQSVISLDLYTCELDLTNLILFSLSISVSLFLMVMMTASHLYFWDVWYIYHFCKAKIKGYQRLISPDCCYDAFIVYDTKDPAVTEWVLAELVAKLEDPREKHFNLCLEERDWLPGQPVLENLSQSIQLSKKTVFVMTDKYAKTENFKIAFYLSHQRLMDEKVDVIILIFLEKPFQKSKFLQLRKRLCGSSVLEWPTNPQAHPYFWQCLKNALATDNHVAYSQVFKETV
Assay: PBMC stimulation with p-L-arginine-complexed RNA ligands, IFN-α ELISA
Assay type: cell-based
Conditions: for IFN-α secretion (TLR7 activity): 16 hours, ELISA (FIG. 7)
Experimental: Peripheral blood mononuclear cells (PBMCs) were obtained from buffy coats from healthy adult donors. Buffy coat samples were first diluted with an equal volume of phosphate-buffered saline (PBS). Next, PBMCs were isolated via density gradient centrifugation with Lymphoprep density gradient media ([…] Technologies) and SepMate-50 tubes ([…] Technologies). Samples were centrifuged at 1000 g for 15 minutes. After centrifugation, the upper layers were collected by pouring into a new tube, diluted with PBS, and centrifuged at 450×g for 5 minutes. To lyse red blood cells, cell pellets were resuspended with 10 mL Ammonium-Chloride-Potassium (ACK) Lysis Buffer and incubated for 8 minutes at room temperature. After lysis, cells were washed with PBS and passed through two 70 μm cell strainers. Viable cell counts were determined with a Vi-CELL cell counter (Beckman Coulter). […] Guanosine was added between about 20 and about 30 minutes before the addition of poly-[…])-complexed RNA. […] After mixing by pipetting up and down, the reaction was incubated for 10 minutes, pipetted up and down again, and then added to the cells. In some experiments, RNA ligands were used at a final concentration of 0.6 μg/ml. Where indicated as “+2'3' cGMP”, 2'3' cyclic GMP purchased from eMolecules was complexed together with the RNA ligands. The final concentration of 2'3' cyclic GMP was 5 μg/ml. p-L-arginine was adjusted accordingly to keep the mass ratio of nucleic acid:p-L-arginine constant. Cell culture supernatants were collected 15-18 hours after stimulation and stored at -80° C. Cytokines in cell culture supernatants were detected with the BD OptEIA human TNF ELISA Set (BD Biosciences), and either Invitrogen IFN alpha Human Matched Antibody Pair kit (Thermo Fisher Scientific) or Human IFN Alpha Multi-Subtype ELISA Kit (PBL Assay Science). To test the effects of the RNA ligands described in Example 1 on TLR7 and TLR8 activation, PBMCs were stimulated with the RNA ligands using p-L-arginine complex delivery, delivery with DOTAP, or delivery without a carrier. Activity of TLR7 and TLR8 was assessed based on measurements of IFN-α or TNF-α by enzyme-linked immunosorbent assays (ELISA). In this setting, as depicted in FIG. 6, IFN-α induced by small RNAs is derived from TLR7 expressed by pDCs, or from RIG-I expressed by monocytes. In contrast, TNF-α secretion is derived from monocytes and serves as an indication of TLR8 activation. As shown in this figure, the p-L-arginine delivery restricts most of the activation to TLRs. First, the effects of the RNA ligands on TLR7 and TLR8 activation using p-L-arginine complex delivery were tested.

[1] = human PBMCs, p-L-arginine delivery

Row | Substance | IFN-α secretion (TLR7 activity) [1] | further results
1 | C-C-G-A-G-C-C-G-C*U*U*U*U*C-C-C (rCrCrGrArGrCrCrGrC*rU*rU*rU*rU*rCrCrC) [ORN7022, phosphodiester-linked version of ORN7013] | lacked TLR7 activity | 
2 | C-C-G-A-G-C-C-G-C-fU-U*fU-U*C-C-C (rCrCrGrArGrCrCrGrCfUrU*fUrU*rCrCrC) [ORN7019, 2′-fluoro-modified and phosphodiester-linked version of ORN7013] | lacked TLR7 activity | 
3 | C-C-G-A-G-C-C-G-C-fU-U*mU-U*C-C-C (rCrCrGrArGrCrCrGrCfUrU*mUrU*rCrCrC) [ORN7021, 2′-fluoro- and 2′O-methyl-modified, phosphodiester-linked version of ORN7013] | lacked TLR7 activity | 
4 | C-C-G-A-G-C-C-G-C-mU-U*fU-U*C-C-C (rCrCrGrArGrCrCrGrCmUrU*fUrU*rCrCrC) [ORN7020, 2′O-methyl- and 2′-fluoro-modified, phosphodiester-linked version of ORN7013] | lacked TLR7 activity | 
5 | C-C-G-A-G-C-C-G-C-mU-U*mU-U*C-C-C (rCrCrGrArGrCrCrGrCmUrU*mUrU*rCrCrC) [ORN7018, 2′O-methyl-modified, phosphodiester-linked version of ORN7013] | lacked TLR7 activity | 
6 | CCUUCUUCUUCUUCUUCUUC (CCUUCUUCUUCUUCUUCUUC; all phosphodiester, sugars by position not given here) [ORN7009, reference compound] |  | IFN-α secretion when co-delivered with 2′3′ cGMP: markedly enhanced; IFN-α secretion with exogenous guanosine: lack of IFN-α secretion
7 | UCUCUCUCUCUCUCUCUCUC (UCUCUCUCUCUCUCUCUCUC; unmodified RNA) [ORN7005, derived from pU1C of Zhang et al., 2018, reference compound] |  | IFN-α secretion when co-delivered with 2′3′ cGMP (human PBMCs, p-L-arginine complexes with 2′3′ cyclic GMP 5 μg/ml, ORN 0.6 μg/ml (FIG. 12)): markedly enhanced; IFN-α secretion with exogenous guanosine (human PBMCs, p-L-arginine delivery, co-stimulated with guanosine (FIG. 7)): lack of IFN-α secretion
